{"sequences": {"note": "Sequences of proteins named here, by UniProt entry; tags and fusion partners are left off.", "UniProt Q13546": "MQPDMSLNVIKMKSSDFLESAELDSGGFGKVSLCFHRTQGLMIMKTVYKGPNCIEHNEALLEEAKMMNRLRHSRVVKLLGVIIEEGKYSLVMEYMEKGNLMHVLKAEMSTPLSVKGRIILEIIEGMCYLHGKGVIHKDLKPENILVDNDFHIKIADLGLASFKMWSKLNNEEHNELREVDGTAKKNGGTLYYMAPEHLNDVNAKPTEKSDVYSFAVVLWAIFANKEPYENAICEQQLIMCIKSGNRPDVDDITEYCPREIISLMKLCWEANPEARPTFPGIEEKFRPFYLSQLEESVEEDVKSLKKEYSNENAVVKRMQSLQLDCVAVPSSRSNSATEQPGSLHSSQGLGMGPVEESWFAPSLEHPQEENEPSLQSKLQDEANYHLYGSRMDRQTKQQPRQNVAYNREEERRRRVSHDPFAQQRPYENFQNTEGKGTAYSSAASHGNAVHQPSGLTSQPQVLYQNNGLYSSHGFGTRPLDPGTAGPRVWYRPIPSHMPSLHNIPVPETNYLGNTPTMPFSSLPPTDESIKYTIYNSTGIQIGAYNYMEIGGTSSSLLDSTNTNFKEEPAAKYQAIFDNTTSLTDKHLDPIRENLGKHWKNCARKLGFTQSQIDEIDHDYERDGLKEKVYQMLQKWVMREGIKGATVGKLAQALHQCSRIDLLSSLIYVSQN", "UniProt Q9Y572": "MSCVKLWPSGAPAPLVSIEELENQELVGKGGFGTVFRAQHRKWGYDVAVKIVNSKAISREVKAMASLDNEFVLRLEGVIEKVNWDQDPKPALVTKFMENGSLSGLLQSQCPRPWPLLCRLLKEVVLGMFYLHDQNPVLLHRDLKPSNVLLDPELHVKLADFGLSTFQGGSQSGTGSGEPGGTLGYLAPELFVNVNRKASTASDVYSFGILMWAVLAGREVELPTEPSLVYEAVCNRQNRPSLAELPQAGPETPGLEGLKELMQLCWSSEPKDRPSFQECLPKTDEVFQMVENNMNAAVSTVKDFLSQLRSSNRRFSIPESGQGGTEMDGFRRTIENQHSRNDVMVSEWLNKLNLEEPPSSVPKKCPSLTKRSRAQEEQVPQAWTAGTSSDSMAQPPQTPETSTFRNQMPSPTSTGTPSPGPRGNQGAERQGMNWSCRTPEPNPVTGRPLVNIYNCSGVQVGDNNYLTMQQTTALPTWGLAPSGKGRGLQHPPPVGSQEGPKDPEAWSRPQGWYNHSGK"}, "source": "paper PMC9170685", "key": {"[1]": {"biological_target": "Receptor-interacting protein kinase 1 (RIPK1) (human (endogenous in BEAS-2B)) (UniProt Q13546)", "assay": "co-IP; lysates of LPS-treated BEAS-2B cells cocultured with exosomes of LPS-stimulated BMDMs (LPS-exo) over time; precipitating antibody not told"}, "[2]": {"biological_target": "Receptor-interacting protein kinase 1 (RIPK1) (human (endogenous in BEAS-2B)) (UniProt Q13546)", "assay": "proximity ligation; BEAS-2B cells treated with LPS-exo or PBS-exo, fixed; Duolink kit with anti-RIP1 and anti-RIP3 antibodies"}}, "note": "These are yes or no findings as the source states them, for the method shown. In cells and extracts the contact can be indirect. Some results given as binding are weak or reduced against the parent protein; the word gives no strength.", "data": [{"substance": "Receptor-interacting protein kinase 3 (RIPK3) (from UniProt Q9Y572 1-518)", "values": [{"measurement": "binding", "setting": "[1]", "result": "binds"}, {"measurement": "binding", "setting": "[2]", "result": "binds"}]}]}
